Assay results as given in publication PMC2518271.
Results are given in words; binding and its absence hold for the method and conditions named. In cells and extracts the contact can be indirect. Here binding means that the protein was enriched with, or labelled near, the bait; the list need not be complete. Sequences can lack the tags named with a protein.

Protein sequences, listed by entry. Tags and fused reporters are not part of them.
UniProt P46821: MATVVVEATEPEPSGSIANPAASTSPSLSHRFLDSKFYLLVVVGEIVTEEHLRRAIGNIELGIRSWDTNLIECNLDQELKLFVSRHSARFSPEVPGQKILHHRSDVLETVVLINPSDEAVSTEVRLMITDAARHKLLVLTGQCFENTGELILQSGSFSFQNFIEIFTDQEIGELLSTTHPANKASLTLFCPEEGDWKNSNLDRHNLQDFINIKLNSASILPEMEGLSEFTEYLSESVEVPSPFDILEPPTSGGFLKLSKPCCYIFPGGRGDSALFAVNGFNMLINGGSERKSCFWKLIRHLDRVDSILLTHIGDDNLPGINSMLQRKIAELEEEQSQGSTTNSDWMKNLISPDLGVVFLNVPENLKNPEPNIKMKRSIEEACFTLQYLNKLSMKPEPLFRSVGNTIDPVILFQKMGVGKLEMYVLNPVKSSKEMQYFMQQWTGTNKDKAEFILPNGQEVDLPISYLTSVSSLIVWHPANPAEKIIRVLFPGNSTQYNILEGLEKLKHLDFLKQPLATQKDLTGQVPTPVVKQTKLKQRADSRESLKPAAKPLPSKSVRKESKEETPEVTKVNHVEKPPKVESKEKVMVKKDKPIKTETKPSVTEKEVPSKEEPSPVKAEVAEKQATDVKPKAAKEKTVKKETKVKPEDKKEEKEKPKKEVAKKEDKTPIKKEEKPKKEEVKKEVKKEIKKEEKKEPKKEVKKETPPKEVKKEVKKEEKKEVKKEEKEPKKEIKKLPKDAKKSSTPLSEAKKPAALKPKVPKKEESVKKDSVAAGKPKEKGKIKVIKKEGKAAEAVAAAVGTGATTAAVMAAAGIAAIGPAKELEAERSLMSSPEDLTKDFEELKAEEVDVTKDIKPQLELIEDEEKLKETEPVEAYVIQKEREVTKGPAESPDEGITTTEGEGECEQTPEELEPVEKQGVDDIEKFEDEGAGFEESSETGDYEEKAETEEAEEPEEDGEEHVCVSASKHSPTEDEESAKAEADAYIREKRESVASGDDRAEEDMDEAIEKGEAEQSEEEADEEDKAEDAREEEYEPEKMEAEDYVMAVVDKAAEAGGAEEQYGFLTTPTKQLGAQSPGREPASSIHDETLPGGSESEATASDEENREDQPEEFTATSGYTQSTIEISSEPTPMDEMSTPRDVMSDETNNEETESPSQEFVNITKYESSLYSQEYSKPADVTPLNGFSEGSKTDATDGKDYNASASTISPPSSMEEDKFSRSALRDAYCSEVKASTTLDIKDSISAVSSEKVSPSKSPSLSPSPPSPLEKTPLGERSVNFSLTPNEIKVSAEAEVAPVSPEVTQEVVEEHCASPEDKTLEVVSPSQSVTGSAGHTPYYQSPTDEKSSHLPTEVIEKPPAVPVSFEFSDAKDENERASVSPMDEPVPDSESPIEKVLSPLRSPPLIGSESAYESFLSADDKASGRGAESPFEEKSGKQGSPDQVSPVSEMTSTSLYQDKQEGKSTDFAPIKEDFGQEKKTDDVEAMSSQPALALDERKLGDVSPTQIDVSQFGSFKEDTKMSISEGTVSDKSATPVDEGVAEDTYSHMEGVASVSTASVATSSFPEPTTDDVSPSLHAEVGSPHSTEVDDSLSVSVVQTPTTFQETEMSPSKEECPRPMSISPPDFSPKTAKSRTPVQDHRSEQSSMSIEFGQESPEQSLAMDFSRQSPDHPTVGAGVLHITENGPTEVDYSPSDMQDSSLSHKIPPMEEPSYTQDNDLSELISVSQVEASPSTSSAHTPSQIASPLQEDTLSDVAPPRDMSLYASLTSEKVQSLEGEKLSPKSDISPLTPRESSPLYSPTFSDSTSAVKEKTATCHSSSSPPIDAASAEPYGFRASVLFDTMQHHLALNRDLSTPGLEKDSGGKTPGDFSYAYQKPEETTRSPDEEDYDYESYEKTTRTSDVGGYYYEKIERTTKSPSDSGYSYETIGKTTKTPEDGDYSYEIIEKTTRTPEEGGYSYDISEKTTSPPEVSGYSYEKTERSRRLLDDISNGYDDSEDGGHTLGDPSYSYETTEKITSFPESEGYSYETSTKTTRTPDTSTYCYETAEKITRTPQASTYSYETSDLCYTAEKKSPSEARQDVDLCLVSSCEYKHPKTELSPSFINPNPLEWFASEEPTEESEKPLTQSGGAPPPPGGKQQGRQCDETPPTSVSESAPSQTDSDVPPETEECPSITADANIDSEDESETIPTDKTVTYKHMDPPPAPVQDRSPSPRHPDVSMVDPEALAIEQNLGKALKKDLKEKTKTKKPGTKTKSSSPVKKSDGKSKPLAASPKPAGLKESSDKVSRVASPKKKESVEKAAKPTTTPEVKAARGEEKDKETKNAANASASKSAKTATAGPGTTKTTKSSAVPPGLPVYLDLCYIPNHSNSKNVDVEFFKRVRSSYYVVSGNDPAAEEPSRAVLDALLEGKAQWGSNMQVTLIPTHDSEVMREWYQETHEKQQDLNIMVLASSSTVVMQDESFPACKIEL

Columns and labels:
[1] = molecular target: T1, FLAG-tagged full-length NORE1A (UniProt Q8WWW0); assay: affinity purification with mass spectrometry; FLAG-tagged full-length NORE1A or effector domain expressed in HEK293 cells; NORE1A-bound proteins examined by mass spectrometry
T1 sequence: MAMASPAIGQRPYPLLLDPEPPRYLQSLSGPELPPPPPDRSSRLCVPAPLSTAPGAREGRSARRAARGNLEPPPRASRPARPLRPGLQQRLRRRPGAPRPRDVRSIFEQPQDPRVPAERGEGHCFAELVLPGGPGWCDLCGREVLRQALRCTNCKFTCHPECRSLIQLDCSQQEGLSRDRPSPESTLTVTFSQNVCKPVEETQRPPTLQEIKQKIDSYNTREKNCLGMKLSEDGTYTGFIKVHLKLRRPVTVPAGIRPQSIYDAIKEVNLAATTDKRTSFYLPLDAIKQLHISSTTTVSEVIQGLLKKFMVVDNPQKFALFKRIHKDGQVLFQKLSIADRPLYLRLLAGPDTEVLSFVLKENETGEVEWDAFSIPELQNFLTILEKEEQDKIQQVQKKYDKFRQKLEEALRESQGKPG

[2] = molecular target: T2, FLAG-tagged NORE1A effector domain (amino acids 191–363) (UniProt Q8WWW0); assay: as above
T2 sequence: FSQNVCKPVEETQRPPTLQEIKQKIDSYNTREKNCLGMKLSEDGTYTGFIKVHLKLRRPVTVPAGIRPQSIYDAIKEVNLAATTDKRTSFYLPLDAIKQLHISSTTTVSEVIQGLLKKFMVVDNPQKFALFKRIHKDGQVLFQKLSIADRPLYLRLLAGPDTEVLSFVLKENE

- binding [1]: binds
- binding [2]: binds
Substance: Microtubule-Associated Protein 1B (MAP1B), endogenous (from UniProt P46821 1-2468)
